Among the data in US20230279108A1 are binding values, retold here.

Protein sequences, listed by entry. Tags and fused reporters are not part of them. Lines headed by an entry give the natural chain unless they say otherwise; changes in a name come on top.
UniProt P78324: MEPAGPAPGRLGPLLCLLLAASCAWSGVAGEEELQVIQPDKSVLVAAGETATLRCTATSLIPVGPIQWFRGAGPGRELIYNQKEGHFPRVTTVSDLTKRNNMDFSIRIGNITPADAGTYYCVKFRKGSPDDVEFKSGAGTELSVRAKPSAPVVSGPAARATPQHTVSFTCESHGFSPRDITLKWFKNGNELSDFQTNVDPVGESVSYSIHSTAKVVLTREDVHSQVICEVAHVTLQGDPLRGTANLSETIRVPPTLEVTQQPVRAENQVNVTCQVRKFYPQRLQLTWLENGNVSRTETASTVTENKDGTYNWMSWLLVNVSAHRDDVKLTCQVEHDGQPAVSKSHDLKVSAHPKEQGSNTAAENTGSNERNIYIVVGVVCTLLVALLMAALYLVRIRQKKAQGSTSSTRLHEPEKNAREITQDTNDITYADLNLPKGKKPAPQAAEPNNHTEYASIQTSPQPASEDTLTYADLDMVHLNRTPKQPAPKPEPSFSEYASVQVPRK

Assay [1] has as its target human SIRPα expressed on cells (THP-1, macrophages, dendritic cells, ES-2) (human) (UniProt P78324). Nature of the assay: flow cytometry on THP-1 cells. In general terms: A flow cytometer gives signals particle by particle.
Assay [2] has the same target. In words: flow cytometry on human macrophages and dendritic cells.
For assay [3] the target is unchanged. In words: flow cytometry on ES-2 cells (SIRPα/β), 10 µg/ml.

No constants are given. Whether binding was seen depends on the method and setting. Some binding calls cover weakened binding; strength is not graded here.

B1: SIRP3 (antibody, mouse IgG1, kappa, V domains shown)
VH: EVQLQQSGPEVVKPGASVKMSCKASGYTFTSYVMHWVKQKPGQGLEWIGYINPYNDGPKYNEKFKGKATLTSDKSSSTAYMELSSLTSEDSAVYFCARWDYFNSASGFAFWGQGTLVTVSA
VL: EIVLTQSPTTMAASPGEKITIICSASSIIGSDFLHWYQQRPGFSPKFLIYRTSILASGVPTRFTGSGSGTSYSLTIGTMEAEDVATYYCQQGSGLPLTFGSGTKLEMKR
With B1, the binding entry in assay [1] and in assay [2] was “binds” in each case.

B2: SIRP9 (antibody, V domains shown)
VH: EVQLQESGAELVRPGASVKLSCKALGYTFTDYEIHWVKETPVYGLEWIGDIHPGSGGTANNQKFKGKATLTADKSSNTAYMELSSLTSEDSAVYYCTRAVSGYYAMDYWGQGTSVTVSS
VL: DIQMTQSSSSFSGSLGDRLTINCKASEDIYDRVAWYQQKPGNAPRLLISGTASLETGVLSRFSGSGSGKDYTLSINGLQAEDVATYYCQQYWTTPWTFGGGTKLEIK
On to B2, for which the binding result in assay [3] and in assay [2] was “binds” throughout.

B3: SIRP5 (antibody, V domains shown)
VH: QVQLQQSAAELARPGASVKMSCKASGYTFTSYTMHWVKQRPGQGLEWIGYINPTIGYTEYNQKFKDKTTLTADKSSSTAYMQLSSLTSEDSAVYYCVRLVITSVLGRAMDYWGQGTSVTVSS
VL: QIVLTQSPALMSASPGEKVTMTCSASSSVSYMYWFQQKPRSSPKPWIYLTSNLASGVPARFSGSGSGTSYSLTISSMEAEDAATYYCQQWSGNPFTFGSGTKLEIK
In the case of B3, the binding result in assay [2] is on record as “binds”.

B4: SIRP2 (antibody, mouse IgG1, kappa, V domains shown)
VH: EVKLVESGGGLVQPGGSLKLSCAASGFSFSGCTMSWIRQTPERRLEWVAYISNGGDITYYPDTVKGRFTISRDNAKNSLYLQMSSLKSEDTAMYYCARLDGYYYAMDFWGQGTSVTVSS
VL: DILLTQSPAILSVSPGERVSFSCRASQSIGTSIHWYQQRTNGSPRLLIKYGSESISGIPSRFSGSGSGTDFTLSINSVESEDIADYYCQQSNTWPLTFGDGTKLELKR
On to B4, for which, in assay [1], the binding entry was “binds”.

B5: SIRP4 (antibody, V domains shown)
VH: EVQLQQSGPDLVKPGASVKISCKASGYSFTDYFLNWVKQSHGKSLEWIGRINPYNGDSFINQNFRDKATLTVDKSSTTAHMDLLSLTSEDSAIYYCGRGGYDGYFIAYFDYWGQGSLVTVSA
VL: DIKLTQSQSSMYSSLGQRVTITCKASQDINSHLSWFQEKPGKSPKTLIYRANRLADGVPSRFSGSGSGQDYFLTISSLEYEDVGIYYCLQYDEFPYTFGGGTKLEIK
As for B5, the binding entry in assay [3] and in assay [2] was “binds” throughout.
